These are yes or no findings as the source states them, for the method shown. Binding seen in cells or lysates may run through a third protein. Some binding calls cover weakened binding; strength is not graded here. One block for each binder: values may come before it.
Assays:
Experiment in all cases: split reporter; Venus BiFC: VC-Hox and VN-TF co-expressed in live Drosophila embryos with the corresponding Hox-Gal4 driver (abdA-Gal4 for AbdA); epidermis, stage 10-12, quantified at stage 10; affected if equal or lower than 50% of wild type, stronger if 120% or more
[1] = biological target: VC-AbdA (Drosophila melanogaster) (UniProt P29555)
[2] = biological target: VC-AbdB (Drosophila melanogaster) (UniProt P09087)
[3] = biological target: VC-Scr (Drosophila melanogaster) (UniProt P09077)
[4] = biological target: VC-Ubx (Drosophila melanogaster) (UniProt P83949)
[5] = biological target: HoxB8 (VC fusion) (mouse) (UniProt P09632)
[6] = biological target: VC-Antp (Drosophila melanogaster) (UniProt P02833)

By UniProt entry, the sequences of proteins in these tests, tags left out.
UniProt P29555: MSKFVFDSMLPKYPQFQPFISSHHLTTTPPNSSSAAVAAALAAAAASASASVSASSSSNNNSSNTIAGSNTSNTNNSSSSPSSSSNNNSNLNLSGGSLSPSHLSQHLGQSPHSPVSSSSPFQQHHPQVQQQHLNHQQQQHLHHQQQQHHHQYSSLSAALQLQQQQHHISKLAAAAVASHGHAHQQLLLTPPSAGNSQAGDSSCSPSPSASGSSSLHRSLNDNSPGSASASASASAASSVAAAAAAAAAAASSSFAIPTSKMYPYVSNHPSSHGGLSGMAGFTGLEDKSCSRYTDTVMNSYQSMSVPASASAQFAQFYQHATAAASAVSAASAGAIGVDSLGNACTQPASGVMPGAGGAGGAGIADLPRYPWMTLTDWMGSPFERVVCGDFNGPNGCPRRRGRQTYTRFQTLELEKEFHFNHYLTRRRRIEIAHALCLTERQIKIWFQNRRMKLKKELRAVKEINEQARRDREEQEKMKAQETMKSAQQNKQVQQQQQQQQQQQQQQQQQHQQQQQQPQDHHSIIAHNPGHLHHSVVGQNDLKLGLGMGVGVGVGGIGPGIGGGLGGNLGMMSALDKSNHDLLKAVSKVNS
UniProt P09077: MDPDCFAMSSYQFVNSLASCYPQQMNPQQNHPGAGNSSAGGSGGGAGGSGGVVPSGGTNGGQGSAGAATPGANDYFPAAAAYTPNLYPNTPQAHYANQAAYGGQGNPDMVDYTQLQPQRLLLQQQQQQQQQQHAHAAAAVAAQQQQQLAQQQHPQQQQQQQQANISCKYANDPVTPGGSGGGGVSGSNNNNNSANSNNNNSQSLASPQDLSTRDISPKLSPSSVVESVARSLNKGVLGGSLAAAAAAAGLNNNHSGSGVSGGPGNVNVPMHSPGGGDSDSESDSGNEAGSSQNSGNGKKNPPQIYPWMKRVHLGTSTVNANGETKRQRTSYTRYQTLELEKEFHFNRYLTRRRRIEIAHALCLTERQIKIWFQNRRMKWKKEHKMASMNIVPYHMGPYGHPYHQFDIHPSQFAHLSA
UniProt P83949: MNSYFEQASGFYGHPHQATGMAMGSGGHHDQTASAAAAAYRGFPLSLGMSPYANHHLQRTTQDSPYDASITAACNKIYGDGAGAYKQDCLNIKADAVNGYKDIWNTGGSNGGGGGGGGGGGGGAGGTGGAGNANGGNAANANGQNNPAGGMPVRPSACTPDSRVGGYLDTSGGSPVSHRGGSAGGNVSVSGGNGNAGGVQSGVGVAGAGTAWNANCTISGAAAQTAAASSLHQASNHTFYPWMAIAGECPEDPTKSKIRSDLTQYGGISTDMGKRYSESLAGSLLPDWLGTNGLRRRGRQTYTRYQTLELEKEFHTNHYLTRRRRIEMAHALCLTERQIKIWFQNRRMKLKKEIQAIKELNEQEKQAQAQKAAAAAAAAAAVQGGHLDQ
UniProt P09632: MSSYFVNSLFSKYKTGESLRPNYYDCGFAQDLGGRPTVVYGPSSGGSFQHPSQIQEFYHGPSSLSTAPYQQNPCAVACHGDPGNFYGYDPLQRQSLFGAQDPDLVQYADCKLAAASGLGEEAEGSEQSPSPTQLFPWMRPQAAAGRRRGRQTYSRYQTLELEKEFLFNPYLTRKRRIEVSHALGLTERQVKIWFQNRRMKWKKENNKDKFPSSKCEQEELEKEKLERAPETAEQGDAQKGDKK
UniProt P02833: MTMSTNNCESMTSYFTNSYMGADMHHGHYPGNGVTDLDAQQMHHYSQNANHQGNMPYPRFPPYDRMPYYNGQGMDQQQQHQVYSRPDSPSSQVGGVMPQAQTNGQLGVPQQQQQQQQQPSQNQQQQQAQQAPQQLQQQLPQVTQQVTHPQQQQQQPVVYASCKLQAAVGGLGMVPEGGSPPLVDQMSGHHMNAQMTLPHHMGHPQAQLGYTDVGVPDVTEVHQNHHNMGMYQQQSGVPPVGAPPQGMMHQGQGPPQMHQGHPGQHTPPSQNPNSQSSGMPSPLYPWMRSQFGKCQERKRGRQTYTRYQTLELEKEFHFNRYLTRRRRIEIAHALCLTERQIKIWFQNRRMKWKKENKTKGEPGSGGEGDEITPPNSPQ

B1: VN-Slouch (protein, UniProt P22807 1-659)
chain: MVMLQSPAQKASDSASAQNTAVGGLMSPNSNPDSPKSNTSPDVASADSVVSGTGGGSTPPAAKIPKFIISANGAAVAGKQEQELRYSLERLKQMSSESGSLLSRLSPLQEDSQDKEKPNHNNNNSLTNHNANSNTRRSQSPPASVGSVSFSSPAQQRKLLELNAVRHLARPEPLQHPHAALLQQHPHLLQNPQFLAAAQQHMHHHQHQHHQHPAHPHSHQHPHPHPHPHPHPHPSAVFHLRAPSSSSTAPPSPATSPLSPPTSPAMHSDQQMSPPIAPPQNPPHSSQPPQQQQVAAPSDMDLERIKLVAAVAARTTQASSTSALASASNSVSNASISISNSSSGSPSGRDLSDYGFRIQLGGLAAAAAAAAATSRQIAAATYARSDTSEELNVDGNDEDSNDGSHSTPSVCPVDLTRSVNSSAAANPSSASTSASSDRDAATKRLAFSVENILDPNKFTGNKLPSGPFGHPRQWSYERDEEMQERLDDDQSEDMSAQDLNDMDQDDMCDDGSDIDDPSSETDSKKGGSRNGDGKSGGGGGGGSKPRRARTAFTYEQLVSLENKFKTTRYLSVCERLNLALSLSLTETQVKIWFQNRRTKWKKQNPGMDVNSPTIPPPGGGSFGPGAYASGLLYSHAVPYPPYGPYFHPLGAHHLSHSHS
binding [1]: binds
binding [2]: no binding

B5: VN-Empty spiracles (protein, UniProt P18488 1-494)
chain: MTKMIPPVPTAAAAVMMPTPKQKIGFSIESIVGNDVSTAGGNSTPDLSGPQSPPPGERNVPGSPPQTPPATLTLIPGSPPHHLMAPPAHGLPYPHPHAQQQHLQAPHPHPHLSPAQQHVLHQHLLMQQQHPGTPKSHQDIQELLQRLHHNAAMASGLSPLQTRLSPETEQPQMAVSLKRERSPAPPAMEQAENPAQRIQPPHTPPKSVSPQSSQPSSSPTLLISSPHATPPQQQQQQPPPNYPKPAMMHPGGAGPMMMPGMPPAGLVRPFPMGPGGPPMPQGQPGLPDIKALPPYINAPPELPPQHNPHLIAAAQFQMAAALQAGHVLGPAAAAAAAAGLPPHAAQFMPNPGMARDSYQLYPWLLSRHGRIFPHRFPGSFLVPPFRKPKRIRTAFSPSQLLKLEHAFESNQYVVGAERKALAQNLNLSETQVKVWFQNRRTKHKRMQQEDEKGGEGGSQRNMHNGSGDEDDDELIDMEMDECPSDEEHELDASH
binding [5]: no binding

B6: VN-Bagpipe (protein, UniProt P22809 1-382)
chain: MLNMESAGVSAAMAGLSKSLTTPFSINDILTRSNPETRRMSSVDSEPEPEKLKPSSDRERSISKSPPLCCRDLGLYKLTQPKEIQPSARQPSNYLQYYAAAMDNNNHHHQATGTSNSSAADYMQRKLAYFGSTLAAPLDMRRCTSNDSDCDSPPPLSSSPSESPLSHDGSGLSRKKRSRAAFSHAQVFELERRFAQQRYLSGPERSEMAKSLRLTETQVKIWFQNRRYKTKRKQIQQHEAALLGASKRVPVQVLVREDGSTTYAHMAAPGAGHGLDPALINIYRHQLQLAYGGLPLPQMQMPFPYFYPQHKVPQPIPPPTQSSSFVTASSASSSPVPIPIPGAVRPQRTPCPSPNGQMMSVESGAESVHSAAEDVDENVEID
binding [6]: no binding
binding [5]: no binding

Now from value to binder:

binding [3]: no binding
binding [4]: no binding
B2: VN-Eyes absent (protein, UniProt Q05201 1-766)
chain: MVTLMPYNYAAPRCGLIDKMIEPKVKRPKTDHTDTHERNRLCNLSQQQQQQQPQQQQTHQQQQQQQQQSHQQSHSSTVLASNGPSSAGAGMGVGVGGGGGSGGGVGGGVGQCSPLGLPPQSQPLQPTIGSLASLSGHYSNGNANPNVNSSSCSLATASSFAQSAGSSFSTYQQAGGTSGGVSGEDGVVGGATVMSHWTHDGTGSSAAVKSESRSPGQVHASLDNGSVAGSNLYGCSSASNPLDGGAVAVNSSAVAAAAAAVYDGKHDYYYYNSMQQYTPPPFYSGYGTPYAAATAARQAKMEPGAAAAAAAYLTPSYAASGNNNSQLYSSPYAGYNNFGQQDYGGYYNEQYGNYYSPANYSPYAVSSPSSSASHGHGFHVAASSNLSESPTDTHSTTPVHQTTHSPHSPLPISPSTGSGIGPLGNVSAAAAAAALNSSGGSSVGTAGSGGVATSKTTPTGKTGRARGRRHQQPSPTRSTASDTGNSEAVKPPERVFVWDLDETLIIFHTLLSGSYANRYTKDHSSLMTIAFRMEEMVFNMADTHFFFNEIEECDQVHIDDVSSDDNGQDLSAYNFATDGFHTNTPPGAPPNLCLPTGVRGGVDWMRKLAFRYRKIKDIYNSYRGNVGTLLGPGKREAWLQIRSEIEVATDNWATLALKCLSMISQRENCVNVLVTSTQLAPALAKVLLFGLGGIFNIENIYSAHKIGHETCYERIVTRFGRKSTYVVIGDGNEEETAAKAMNFPFWRISAHSDIRALYTALDMGFL

binding [5]: no binding
B3: VN-Biniou (protein, UniProt Q9VS05 1-676)
chain: MIKSEEASDRSVMTMDQLGGYYHDPRAHPPFSHPHAHSHPHQHTHTGHPYRAGNLLTGGNYQAMGGGESPTELIDEKPNIGYMELKHYMDATPTATPVSAAQHYSLSALHSMGTPPASSSPIPPYGVLMTAHSAGSASPQSNSKTPTDLPQDLQYASSSTSTAKVQPLQVQLQPLNHQYASTIKYCSNNTILSANDYQLLTSQEQAGQQQPQQLPAQQLQHSPGGGYMSRISTSPSQVISNAHGMPVLNYSSSSSSPAKSLNGSESSPPSQNHLENKVSGSAVVGTGGSSQQDAPSTPDTTKKSGTRRPEKPALSYINMIGHAIKESPTGKLTLSEIYAYLQKSYEFFRGPYVGWKNSVRHNLSLNECFKKLPKGMGVGKPGKGNYWTIDENSAHLFEDEGSLRRRPRGYRSKIKVKPYAGHANGYYASGYGDAGMDNGNYYASPAFASYDYSAAGATGVSPAGGQGFADPWNAHAAHSGSSSVGVGMGVGPLPQYTNISCLAAGGNVNGSATTPPLAHSALGMAPSASSSSSPLGAAATLQSDYAPTASLVAAGYSYATSAGSLDNGLRSISLQQLPGLSSIQHAQAQAQAQAHHHHHQHHASHPSHSHQGHGSMHQNHGTSSTTPPPSQSGGSHGIDHSPIDRKPAYLPPISPPPMMVALNGGGGYYEGLKYAN

binding [4]: no binding
binding [1]: binds
B4: VN-Serpent (protein, UniProt P52172 1-1264)
chain: MTKTTKPKEKAAAGGAVIGSGSGLGSVTKAGGGSLLSNAADSKIRTAKSNNNKRQAGRAATALAATTTASALAATTTAGATGSNAAANETEIAIETENGEAATPTAAATAAAANLSSLESARSQALTSVVSETARQAVTTANASATSTSTVTAATEIATATASDTAATSEAAIDDDPSAINTNNNNNNSKAQNDASESVKTKVISYHQSEDQQQQQQQQAQIYEQQQQFLSQQLISHHQQEQHQQAQQQQHQQVVQEQHQASWLAYDLTSGSAAAAAAAAAAASHPHLFGQFSYPPSHHTPTQLYEHYPSTDPIMRNNFAFYSVYTGGGGGVGVGMTSHEHLAAAAAAAAAVAQGTTPNIDEVIQDTLKDECFEDGHSTDYHVLTSVSDMHTLKDSSPYALTHEQLHQQQHHHQQQLHHHQQQQQQLYHQQQQQQQQQQHHHHHNNSTSSAGGDSPSSSHALSTLQSFTQLTSATQRDSLSPENDAYFAAAQLGSSLQNSSVYAGSLLTQTANGIQYGMQSPNQTQAHLQQQHHQQQQQQHQQHQQQQLQQQQQQHHHNQHQHHNSSSSSPGPAGLHHSSSSAATAAAVAAATAAVNGHNSSLEDGYGSPRSSHSGGGGGGTLPAFQRIAYPNSGSVERYAPITNYRGQNDTWFDPLSYATSSSGQAQLGVGVGAGVVSNVIRNGRAISAANAAAAAAADGTTGRVDPGTFLSASASLSAMAAESGGDFYKPNSFNVGGGGRSKANTSGAASSYSCPGSNATSAATSAVASGTAATAATTLDEHVSRANSRRLSASKRAGLSCSNCHTTHTSLWRRNPAGEPVCNACGLYYKLHSVPRPLTMKKDTIQKRKRKPKGTKSEKSKSKSKNALNAIMESGSLVTNCHNVGVVLDSSQMDVNDDMKPQLDLKPYNSYSSQPQQQLPQYQQQQQLLMADQHSSAASSPHSMGSTSLSPSAMSHQHQTHPHQQQQQQLCSGLDMSPNSNYQMSPLNMQQHQQQQSCSMQHSPSTPTSIFNTPSPTHQLHNNNNNNNNSSIFNNNNNNNSSSNENNNKLIQKYLQAQQLSSSSNSGSTSDHQLLAQLLPNSITAAAAAAAAAAAAAIKTEALSLTSQANCSTASAGLMVTSTPTTASSTLSSLSHSNIISLQNPYHQAGMTLCKPTRPSPPYYLTPEEDEQPALIKMEEMDQSQQQQQQQQHQQQQHGEIMLSRSASLDEHYELAAFQRHQQQQQQLQQQTAALLGQHEQHVTNYAMHKFGVDRETVVKME

binding [3]: no binding
binding [4]: binds
binding [1]: binds
binding [2]: binds
binding [6]: binds
B7: VN-Twist (protein, UniProt P10627 1-490)
chain: MMSARSVSPKVLLDISYKPTLPNIMELQNNVIKLIQVEQQAYMQSGYQLQHQQQHLHSHQHHQQHHQQQHAQYAPLPSEYAAYGITELEDTDYNIPSNEVLSTSSNQSAQSTSLELNNNNTSSNTNSSGNNPSGFDGQASSGSSWNEHGKRARSSGDYDCQTGGSLVMQPEHKKLIHQQQQQQQQHQQQIYVDYLPTTVDEVASAQSCPGVQSTCTSPQSHFDFPDEELPEHKAQVFLPLYNNQQQQSQQLQQQQPHQQSHAQMHFQNAYRQSFEGYEPANSLNGSAYSSSDRDDMEYARHNALSSVSDLNGGVMSPACLADDGSAGSLLDGSDAGGKAFRKPRRRLKRKPSKTEETDEFSNQRVMANVRERQRTQSLNDAFKSLQQIIPTLPSDKLSKIQTLKLATRYIDFLCRMLSSSDISLLKALEAQGSPSAYGSASSLLSAAANGAEADLKCLRKANGAPIIPPEKLSYLFGVWRMEGDAQHQKA

Reference: PMC4392834
